PubChem BioAssay AID1259405 – NCATS | 2018
Screen: 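Silenced genes that increase secreted GFP made by CHO cells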 (primary screen). System: Chinese hamster CHO-K1 ovary cells with stable secreted eGFP expression. Reagent: single siRNA against mouse genes, 0.8 pmol siRNA per well (2 µl of 400 nM stock). Time to read-out: 3 days. Measurement: 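Per-well intracellular GFP measured by laser scanning cytometry, plus viability from ATP luminescence, each relative to plate median of non-targeting control wells, in %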. Reading the numbers: GFP, % of control: higher = more GFP per well, higher productivity; viability (ATP), % of control: higher = more viable cells (more ATP). Rule for the call: 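Called active when intracellular GFP, relative to negative control, is at or above 120%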.
In all, the deposit lists about 50,000 reagents; shown is an unselected part. Over the whole deposit, about 4,000 (8%) were called active. 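Mouse siRNA library applied to hamster cells; one well for each siRNA.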 A number with no mark means an inactive call. Reagents against one gene are numbered here.

Thoc6 #1 | GFP, % of control = 64.8; viability (ATP), % of control = 64.1
Thoc6 #2 | GFP, % of control = 23.1; viability (ATP), % of control = 79.6
Thoc6 #3 | GFP, % of control = 121 (active); viability (ATP), % of control = 52.9
Atp23 #1 | GFP, % of control = 91.1; viability (ATP), % of control = 98.9
Atp23 #2 | GFP, % of control = 118; viability (ATP), % of control = 90.2
Chmp2a #1 | GFP, % of control = 24; viability (ATP), % of control = 15.6
Chmp2a #2 | GFP, % of control = 160 (active); viability (ATP), % of control = 133
Chmp2a #3 | GFP, % of control = 55; viability (ATP), % of control = 56.9
Lox #1 | GFP, % of control = 149 (active); viability (ATP), % of control = 127
Lox #2 | GFP, % of control = 63.8; viability (ATP), % of control = 57.9
Lox #3 | GFP, % of control = 56.2; viability (ATP), % of control = 81.6
Snx18 #1 | GFP, % of control = 78.9; viability (ATP), % of control = 104
Snx18 #2 | GFP, % of control = 94.5; viability (ATP), % of control = 74.3
Prl2c5 #1 | GFP, % of control = 63.2; viability (ATP), % of control = 63.6
Prl2c5 #2 | GFP, % of control = 54.5; viability (ATP), % of control = 45.5
Prl2c5 #3 | GFP, % of control = 52.2; viability (ATP), % of control = 39.1
H4c9 #1 | GFP, % of control = 75.6; viability (ATP), % of control = 80.4
H4c9 #2 | GFP, % of control = 96.8; viability (ATP), % of control = 99.1
H4c9 #3 | GFP, % of control = 51.4; viability (ATP), % of control = 76.7

Sorted by “viability (ATP), % of control” (ascending): 4 of the entries above
Chmp2a #1 | GFP, % of control = 24; viability (ATP), % of control = 15.6
Thoc6 #3 | GFP, % of control = 121 (active); viability (ATP), % of control = 52.9
Atp23 #2 | GFP, % of control = 118; viability (ATP), % of control = 90.2
Atp23 #1 | GFP, % of control = 91.1; viability (ATP), % of control = 98.9

Continued.
Crebzf #1 | GFP, % of control = 68.9; viability (ATP), % of control = 97.8
Crebzf #2 | GFP, % of control = 119; viability (ATP), % of control = 136
Crebzf #3 | GFP, % of control = 55.4; viability (ATP), % of control = 89.1
Krtap3-3 #1 | GFP, % of control = 50; viability (ATP), % of control = 70
Krtap3-3 #2 | GFP, % of control = 43.1; viability (ATP), % of control = 44.4
Krtap3-3 #3 | GFP, % of control = 61; viability (ATP), % of control = 61.5
Mylk3 | GFP, % of control = 89; viability (ATP), % of control = 83
Zfp420 #1 | GFP, % of control = 63.1; viability (ATP), % of control = 64.6
Zfp420 #2 | GFP, % of control = 30.6; viability (ATP), % of control = 42.4
Lrrc4b #1 | GFP, % of control = 105; viability (ATP), % of control = 151
Lrrc4b #2 | GFP, % of control = 62.5; viability (ATP), % of control = 51.4
Lrrc4b #3 | GFP, % of control = 56.2; viability (ATP), % of control = 71.2
Scd2 #1 | GFP, % of control = 47.3; viability (ATP), % of control = 54.6
Scd2 #2 | GFP, % of control = 61.1; viability (ATP), % of control = 63.9
Scd2 #3 | GFP, % of control = 76.6; viability (ATP), % of control = 101
Ggnbp2 #1 | GFP, % of control = 79.2; viability (ATP), % of control = 80.1
Ggnbp2 #2 | GFP, % of control = 45.6; viability (ATP), % of control = 54.1
Ggnbp2 #3 | GFP, % of control = 66.2; viability (ATP), % of control = 89.3
Sorl1 #1 | GFP, % of control = 50.1; viability (ATP), % of control = 76.6
Sorl1 #2 | GFP, % of control = 26.6; viability (ATP), % of control = 41.5
Sorl1 #3 | GFP, % of control = 89; viability (ATP), % of control = 87.1
